Experiment [1] concerns the target T1, HA-OS-9 (hemagglutinin epitope-tagged human OS-9) (human) (UniProt Q13438).
T1 sequence (35S-methionine labelled when in vitro-translated, looked up): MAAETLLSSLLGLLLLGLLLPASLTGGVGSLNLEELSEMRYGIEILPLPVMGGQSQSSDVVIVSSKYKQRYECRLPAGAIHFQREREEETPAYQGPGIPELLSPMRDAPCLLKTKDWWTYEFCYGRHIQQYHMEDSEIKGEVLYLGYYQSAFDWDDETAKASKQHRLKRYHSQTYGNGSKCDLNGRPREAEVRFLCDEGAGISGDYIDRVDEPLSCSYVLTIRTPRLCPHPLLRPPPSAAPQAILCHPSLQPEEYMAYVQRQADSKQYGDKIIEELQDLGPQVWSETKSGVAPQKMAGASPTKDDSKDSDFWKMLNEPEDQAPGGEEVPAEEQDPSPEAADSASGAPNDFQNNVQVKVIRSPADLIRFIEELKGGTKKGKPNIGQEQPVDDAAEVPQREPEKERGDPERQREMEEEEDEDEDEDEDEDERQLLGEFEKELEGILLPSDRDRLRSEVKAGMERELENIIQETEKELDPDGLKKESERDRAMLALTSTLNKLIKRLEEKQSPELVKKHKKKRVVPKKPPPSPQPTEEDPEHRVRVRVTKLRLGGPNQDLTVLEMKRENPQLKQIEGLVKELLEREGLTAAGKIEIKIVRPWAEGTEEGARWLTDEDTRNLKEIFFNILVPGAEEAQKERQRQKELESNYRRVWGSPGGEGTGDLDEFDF
As to the kind of experiment: GST pull-down of 35S-labelled in vitro-translated HA-OS-9, SDS-PAGE and autoradiography.

Chains of the proteins cited; added tags and fusions are not shown.
UniProt Q9H6Z9: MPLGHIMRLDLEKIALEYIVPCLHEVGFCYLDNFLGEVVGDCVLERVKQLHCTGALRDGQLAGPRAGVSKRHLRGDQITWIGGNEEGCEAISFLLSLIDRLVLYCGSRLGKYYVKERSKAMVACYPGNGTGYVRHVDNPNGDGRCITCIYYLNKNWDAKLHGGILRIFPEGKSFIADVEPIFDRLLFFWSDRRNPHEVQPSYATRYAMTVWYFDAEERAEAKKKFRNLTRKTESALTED

For experiment [2], the target named is PHD3 (HIF-1α prolyl hydroxylase 3) (UniProt Q9H6Z9). As to the kind of experiment: legend of FIG. 5: anti-HA immunoprecipitation from 293 cells, immunoblot for each PHD isoform. A general note: Immunoblotting shows a protein as a band on a membrane.
The target in experiment [3] is GST-HIF-1α (531-826) [GST: P08515]. Nature of the experiment: GST pull-down of in vitro-translated OS-9 on GST-HIF-1α (531-826) preincubated with lysate, with desferrioxamine; autoradiography.
Experiment [4] deals with PHD3 (HIF-1α prolyl hydroxylase 3) (UniProt Q9H6Z9). As to the kind of experiment: co-immunoprecipitation with anti-HA from transfected 293 cells, immunoblot with anti-PHD3.

The text below walks through data of patent publication US20090202508A1, “NEGATIVE REGULATION OF HYPOXIA INDUCIBLE FACTOR 1 BY OS-9” (THE JOHNS HOPKINS UNIVERSITY, priority 2004, published 2009).

These are yes or no findings as the source states them, for the method shown. For some of these results: In cells and extracts the contact can be indirect. Some results given as binding are weak or reduced against the parent protein; the word gives no strength. Sequences can lack the tags named with a protein.

“GST-HIF-1α (531-826) (from UniProt P08515 1-218; Q16665 531-826)”: the binding entry in experiment [1] is reported as “binds”.

B1: HA-OS-9 (hemagglutinin epitope-tagged human OS-9) (protein, UniProt Q13438 1-667, looked up, not shown: small tags and cut ends)
chain: MAAETLLSSLLGLLLLGLLLPASLTGGVGSLNLEELSEMRYGIEILPLPVMGGQSQSSDVVIVSSKYKQRYECRLPAGAIHFQREREEETPAYQGPGIPELLSPMRDAPCLLKTKDWWTYEFCYGRHIQQYHMEDSEIKGEVLYLGYYQSAFDWDDETAKASKQHRLKRYHSQTYGNGSKCDLNGRPREAEVRFLCDEGAGISGDYIDRVDEPLSCSYVLTIRTPRLCPHPLLRPPPSAAPQAILCHPSLQPEEYMAYVQRQADSKQYGDKIIEELQDLGPQVWSETKSGVAPQKMAGASPTKDDSKDSDFWKMLNEPEDQAPGGEEVPAEEQDPSPEAADSASGAPNDFQNNVQVKVIRSPADLIRFIEELKGGTKKGKPNIGQEQPVDDAAEVPQREPEKERGDPERQREMEEEEDEDEDEDEDEDERQLLGEFEKELEGILLPSDRDRLRSEVKAGMERELENIIQETEKELDPDGLKKESERDRAMLALTSTLNKLIKRLEEKQSPELVKKHKKKRVVPKKPPPSPQPTEEDPEHRVRVRVTKLRLGGPNQDLTVLEMKRENPQLKQIEGLVKELLEREGLTAAGKIEIKIVRPWAEGTEEGARWLTDEDTRNLKEIFFNILVPGAEEAQKERQRQKELESNYRRVWGSPGGEGTGDLDEFDF
modifications: 35S-methionine labelled when in vitro-translated
As for B1, the binding result in experiment [2], in experiment [3] and in experiment [4] was “binds” each time.
